At least one structure is not confirmed: it was looked up by name or label, or the drawing left a doubt.
Columns and labels:
[1] = test system: mice with asthma induced by ovalbumin; assay: Inflammation in lung of mice with asthma induced by ovalbumin (microphotographs, Examples 2 and 4); assay type: in vivo, mice (C57BL/6); conditions: 1.25 mg/kg, intraperitoneal injection twice; 48 hours after treatment; FIG. 3
Description: At first, in order to prepare animal models of asthma, 200 μl of ovalbumin solution (ovalbumin 200 μg and alumina gel 1000 μg were dissolved in physiological saline) was injected in each abdominal cavity of twenty 10-week old female mice (C57BL/6, Damul Science, Daejeon, Korea). Two weeks later, 200 μl of ovalbumin solution(2% w/v) was sprayed on each mouse to sensitize it. 200 μl of 1% ovalbumin solution was sprayed again on the 21st, the 22nd and the 23rd day, and 10% ovalbumin solution was sprayed again on the 25th day to sensitize.
The above mice with asthma induced by sensitizing with 10% ovalbumin were divided into two groups; one was used as a negative control group treated with nothing and the other was treated with 10 mg/kg of black rice extract. Black rice extract was administered by intraperitoneal injection and the injection was performed twice on the 24th and the 25th day from the treatment of ovalbumin.
48 hours after the treatment of black rice extract, mice were sacrificed using ether. Inflammation in lung of each mouse was investigated. […] Therefore, it was confirmed that black rice extract could inhibit asthma effectively. […]

[2] = test system: mice with asthma induced by ovalbumin; assay: Accumulation of eosinophiles in airway (BALF cell count) of mice with asthma induced by ovalbumin (Example 3); assay type: in vivo, mice (C57BL/6)
Description: At first, in order to prepare animal models of asthma, 200 μl of ovalbumin solution (ovalbumin 200 μg and alumina gel 1000 μg were dissolved in physiological saline) was injected in each abdominal cavity of twenty 10-week old female mice (C57BL/6, Damul Science, Daejeon, Korea). Two weeks later, 200 μl of ovalbumin solution(2% w/v) was sprayed on each mouse to sensitize it. 200 μl of 1% ovalbumin solution was sprayed again on the 21st, the 22nd and the 23rd day, and 10% ovalbumin solution was sprayed again on the 25th day to sensitize. […] Each compound was administered by intraperitoneal injection and the injection was performed twice on the 24th and the 25th day from the treatment of ovalbumin. On the second day from the treatment, each mouse was sacrificed using ether. Then, a microtube was connected to trachea. PBS (phosphate-buffered saline, 0.8 ml) was injected and recovered through the microtube, which was repeated twice, resulting in the obtainment of bronchoalveolar lavage fluid (BALF). The fluid was centrifuged to separate cells in airway lumen and various proteins secreted from the cells and lung. The separated cells were fixed on a slide using cytospin and stained with Diff-Quick staining solution. Photographs were taken by a digital camera attached on Carzeiss microscope (model: […]). […]

SMILES: Oc1cc(O)c2cc(O)c(-c3cc(O)c(O)c(O)c3)[o+]c2c1 [delphinidin, reference compound]
- inflammation in bronchi [1]: not much inhibited
- accumulation of eosinophiles in airway ([2]; 0.5 mg/kg and 1.25 mg/kg, intraperitoneal injection, FIG. 2): inhibited
- effect on accumulation of eosinophiles in airway and inflammation in lung (summary) ([2]; mice with asthma induced by ovalbumin, summary statement, FIG. 2-4): no effects
